{"source": "PubChem BioAssay AID1508588 (Peter MacCallum Cancer Centre, 2020)", "assay": "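Which gene losses make BRAF-mutant melanoma cells more responsive to vemurafenib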 (primary screen)", "cells": "human WM266.4 melanoma cells (BRAF V600 mutant)", "reagents": "siRNA pool against human genes, 40 nM", "timing": "96 h from transfection to read-out", "challenge": "vemurafenib 300 nM (about IC25), added 48 h after transfection, for 48 h; comparison arm got DMSO vehicle only", "read-out": "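Cell gain (DAPI nuclei at end minus before drug, mean of two replicates) and medium lactate by absorbance per cell, both as ratio to non-targeting siRNA, also grouped into fold-change classes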", "direction": "cell gain with vemurafenib: higher = more cell gain than with non-targeting siRNA; lactate per cell with vemurafenib: higher = more lactate made per cell", "hit rule": "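a knock-down counts as enhancing when its fold-change classes with vehicle and with vemurafenib, taken together, show a stronger drug effect on cell gain or lactate per cell; exact class pairs not stated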", "calls": "active = enhances vemurafenib effect; inactive = no enhancement seen", "note": "The deposit covers about 18,000 reagents; shown is a part drawn at random. Of all reagents, 790 (4.4%) were called active. 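Calls rest on a combination of fold-change classes in drug and vehicle arms, not all shown here.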 A number with no mark means an inactive call."}
{"gene":"KHDRBS2","PubChem SID":"SID134320871","cell gain with vemurafenib":0.69,"lactate per cell with vemurafenib":1.42}
{"gene":"INTS14","PubChem SID":"SID135622791","cell gain with vemurafenib":0.97,"lactate per cell with vemurafenib":0.46}
{"gene":"FTHL17","PubChem SID":"SID134317729","cell gain with vemurafenib":0,"lactate per cell with vemurafenib":0.67}
{"gene":"EPRS1","PubChem SID":"SID152147258","cell gain with vemurafenib":0.64,"lactate per cell with vemurafenib":1.21}
{"gene":"ZNF248","PubChem SID":"SID134318252","cell gain with vemurafenib":0.59,"lactate per cell with vemurafenib":0.96}
{"gene":"EXOSC7","PubChem SID":"SID152148596","cell gain with vemurafenib":0.84,"lactate per cell with vemurafenib":0.95}
{"gene":"ITPRID1","PubChem SID":"SID152156072","cell gain with vemurafenib":0.45,"lactate per cell with vemurafenib":1}
{"gene":"SCRT2","PubChem SID":"SID152148323","cell gain with vemurafenib":0.63,"lactate per cell with vemurafenib":1.32}
{"gene":"PAK1IP1","PubChem SID":"SID152152276","cell gain with vemurafenib":0.53,"lactate per cell with vemurafenib":1.79}
{"gene":"HDX","PubChem SID":"SID135623043","cell gain with vemurafenib":0.61,"lactate per cell with vemurafenib":0.85}
{"gene":"RTN3","PubChem SID":"SID134323827","cell gain with vemurafenib":0.78,"lactate per cell with vemurafenib":1.03}
{"gene":"PRDM12","PubChem SID":"SID134318017","cell gain with vemurafenib":1.34,"lactate per cell with vemurafenib":0.74}
{"gene":"ANO5","PubChem SID":"SID134326647","cell gain with vemurafenib":0.86,"lactate per cell with vemurafenib":0.68}
{"gene":"ROPN1","PubChem SID":"SID134321026","cell gain with vemurafenib":1,"lactate per cell with vemurafenib":0.87}
{"gene":"RNF138","PubChem SID":"SID152149356","cell gain with vemurafenib":0.43,"lactate per cell with vemurafenib":1.64}
{"gene":"TMEM151A","PubChem SID":"SID134319792","cell gain with vemurafenib":0.35,"lactate per cell with vemurafenib":1.27}

An excerpt from above, showing only “cell gain with vemurafenib”.
EPRS1 [SID152147258] = 0.64
ZNF248 [SID134318252] = 0.59
